Results as given in publication PMC7840056.
These are yes or no findings as the source states them, for the method shown.

Molecular target: Purified recombinant H. pylori SlyD-ΔCter mutant (Helicobacter pylori) (UniProt O25748)
Assay: Western blot of purified proteins under non-reducing conditions; purified recombinant SlyD proteins on a gel under non-reducing conditions, probed with anti-SlyD polyclonal antibodies; multimers put down to disulfide bonds; both purified

“Purified recombinant H. pylori SlyD-ΔCter mutant (from UniProt O25748 1-154) (domain or fragment)” was tested, and the binding was “no binding”.
